# The other results are listed elsewhere or left out. Single values are uncertain, as repeats are few or missing.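 Imaging used 1,536-well plates; nuclei positive for cleaved PARP by antibody were divided by total DNA-stained nuclei to yield the apoptosis fraction. Doses for screening kept most cells viable, and cell lines differ markedly in resting and induced cleaved-PARP levels.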
# System: MeWo
# Test: cleaved PARP positive nuclei fraction relative to DMSO control; melanoma cells; higher = more apoptosis
# Details: library dose: low library concentration; 72 h
row,SMILES,cleaved PARP positive nuclei fraction [%]
1,"CC[C@]1(O)C[C@H]2CN(CCc3c([nH]c4ccccc34)[C@@](C(=O)OC)(c3cc4c(cc3OC)N(C=O)[C@H]3[C@@](O)(C(=O)OC)[C@H](OC(C)=O)[C@]5(CC)C=CCN6CC[C@]43[C@@H]65)C2)C1 [vincristine] + COc1ccc(Cl)c(Nc2nc3ccccc3nc2NS(=O)(=O)c2cccc(NC(=O)C(C)(C)N)c2)c1 [XL147] (first compound 0.0001 µM, partner dose 0.8 µM)",15.1
2,"Cc1cn(-c2cc(NC(=O)c3ccc(C)c(Nc4nccc(-c5cccnc5)n4)c3)cc(C(F)(F)F)c2)cn1 [nilotinib] + COc1ccc(Cl)c(Nc2nc3ccccc3nc2NS(=O)(=O)c2cccc(NC(=O)C(C)(C)N)c2)c1 [XL147] (first compound 0.2 µM, partner dose 0.8 µM)",127
3,"Cc1cc(Nc2cc(N3CCN(C)CC3)nc(Sc3ccc(NC(=O)C4CC4)cc3)n2)n[nH]1 [Tozasertib] + Nc1nc(F)nc2c1ncn2[C@@H]1O[C@H](CO)[C@@H](O)[C@@H]1O [fludarabine] (first compound 0.006 µM, partner dose 0.2 µM)",968
4,"O=C(/C=C/c1cccnc1)NCCCCC1CCN(C(=O)c2ccccc2)CC1 + CCCS(=O)(=O)Nc1ccc(F)c(C(=O)c2c[nH]c3ncc(Cl)cc23)c1F [PLX4720] (first compound 0.01 µM, partner dose 0.08 µM)",79.9
5,"O=C(/C=C/c1cccnc1)NCCCCC1CCN(C(=O)c2ccccc2)CC1 + CC(=O)c1c(C)c2cnc(Nc3ccc(N4CCNCC4)cn3)nc2n(C2CCCC2)c1=O [palbociclib] (first compound 0.01 µM, partner dose 0.04 µM)",86.6
6,"CCCCCCCCCCCCCCCCCCOP(=O)([O-])OC1CC[N+](C)(C)CC1 [Perifosine] + CCCCCCCCc1ccc(CCC(N)(CO)CO)cc1 [fingolimod] (first compound 0.4 µM, partner dose 2 µM)",129
7,"CC[C@]1(O)C[C@H]2CN(CCc3c([nH]c4ccccc34)[C@@](C(=O)OC)(c3cc4c(cc3OC)N(C=O)[C@H]3[C@@](O)(C(=O)OC)[C@H](OC(C)=O)[C@]5(CC)C=CCN6CC[C@]43[C@@H]65)C2)C1 [vincristine] + Nc1ncn([C@H]2C[C@H](O)[C@@H](CO)O2)c(=O)n1 [decitabine] (first compound 0.0001 µM, partner dose 0.1 µM)",182
8,"O=c1[nH]nc(Sc2ncc([N+](=O)[O-])s2)n1-c1ccc2c(c1)OCCO2 + CC1(C)CCC(c2ccc(Cl)cc2)=C(CN2CCN(c3ccc(C(=O)NS(=O)(=O)c4ccc(N[C@H](CCN5CCOCC5)CSc5ccccc5)c(S(=O)(=O)C(F)(F)F)c4)cc3)CC2)C1 [ABT263] (first compound 0.2 µM, partner dose 0.4 µM)",309
9,"O=c1[nH]nc(Sc2ncc([N+](=O)[O-])s2)n1-c1ccc2c(c1)OCCO2 + C=C(c1ccc(C(=O)O)cc1)c1cc2c(cc1C)C(C)(C)CCC2(C)C [Bexarotene] (first compound 0.2 µM, partner dose 2 µM)",30.3
10,"CC[C@]1(O)C[C@H]2CN(CCc3c([nH]c4ccccc34)[C@@](C(=O)OC)(c3cc4c(cc3OC)N(C=O)[C@H]3[C@@](O)(C(=O)OC)[C@H](OC(C)=O)[C@]5(CC)C=CCN6CC[C@]43[C@@H]65)C2)C1 [vincristine] + COc1ccc(C2=N[C@@H](c3ccc(Cl)cc3)[C@@H](c3ccc(Cl)cc3)N2C(=O)N2CCNC(=O)C2)c(OC(C)C)c1 [Nutlin-3] (first compound 0.0001 µM, partner dose 0.1 µM)",219
11,"COc1cc([C@@H]2c3cc4c(cc3[C@@H](O[C@@H]3O[C@@H]5CO[C@@H](C)O[C@H]5[C@H](O)[C@H]3O)[C@H]3COC(=O)[C@H]23)OCO4)cc(OC)c1O [etoposide] + C[C@@H](Oc1cc(-c2cnn(C3CCNCC3)c2)cnc1N)c1c(Cl)ccc(F)c1Cl [Crizotinib] (first compound 0.02 µM, partner dose 0.2 µM)",146
12,"CC[C@]1(O)C[C@H]2CN(CCc3c([nH]c4ccccc34)[C@@](C(=O)OC)(c3cc4c(cc3OC)N(C=O)[C@H]3[C@@](O)(C(=O)OC)[C@H](OC(C)=O)[C@]5(CC)C=CCN6CC[C@]43[C@@H]65)C2)C1 [vincristine] + OCc1c[nH]c2ccccc12 [Indole-3-carbinol] (first compound 0.0001 µM, partner dose 0.8 µM)",239
13,"O=c1[nH]nc(Sc2ncc([N+](=O)[O-])s2)n1-c1ccc2c(c1)OCCO2 + Cn1cnc2c(F)c(Nc3ccc(Br)cc3Cl)c(C(=O)NOCCO)cc21 [selumetinib] (first compound 0.2 µM, partner dose 0.015 µM)",205
14,"CC[C@]1(O)C[C@H]2CN(CCc3c([nH]c4ccccc34)[C@@](C(=O)OC)(c3cc4c(cc3OC)N(C=O)[C@H]3[C@@](O)(C(=O)OC)[C@H](OC(C)=O)[C@]5(CC)C=CCN6CC[C@]43[C@@H]65)C2)C1 [vincristine] + CS(=O)(=O)c1ccc(C(=O)Nc2ccc(Cl)c(-c3ccccn3)c2)c(Cl)c1 [vismodegib] (first compound 0.0001 µM, partner dose 1 µM)",147
15,"O=c1[nH]nc(Sc2ncc([N+](=O)[O-])s2)n1-c1ccc2c(c1)OCCO2 + Nc1ccn([C@@H]2O[C@H](CO)[C@@H](O)C2(F)F)c(=O)n1 [gemcitabine] (first compound 0.2 µM, partner dose 0.0004 µM)",89
16,"CCCCCCCCCCCCCCCCCCOP(=O)([O-])OC1CC[N+](C)(C)CC1 [Perifosine] + Cc1cc(Nc2cc(N3CCN(C)CC3)nc(/C=C/c3ccccc3)n2)n[nH]1 [ENMD2076] (first compound 0.4 µM, partner dose 0.04 µM)",100
17,"O=C(Nc1cc(C(F)(F)F)cc(C(F)(F)F)c1)c1cc(Cl)ccc1O + Cn1cnc2c(F)c(Nc3ccc(Br)cc3Cl)c(C(=O)NOCCO)cc21 [selumetinib] (first compound 0.016 µM, partner dose 0.015 µM)",185
18,"Cc1ccc(Nc2nccc(N(C)c3ccc4c(C)n(C)nc4c3)n2)cc1S(N)(=O)=O [Pazopanib] + CC(=O)c1c(C)c2cnc(Nc3ccc(N4CCNCC4)cn3)nc2n(C2CCCC2)c1=O [palbociclib] (first compound 0.4 µM, partner dose 0.04 µM)",59
19,"CC[C@]1(O)C[C@H]2CN(CCc3c([nH]c4ccccc34)[C@@](C(=O)OC)(c3cc4c(cc3OC)N(C=O)[C@H]3[C@@](O)(C(=O)OC)[C@H](OC(C)=O)[C@]5(CC)C=CCN6CC[C@]43[C@@H]65)C2)C1 [vincristine] + C#Cc1cccc(Nc2ncnc3cc(OCCOC)c(OCCOC)cc23)c1 [erlotinib] (first compound 0.0001 µM, partner dose 0.8 µM)",1690
20,"N#CC[C@H](C1CCCC1)n1cc(-c2ncnc3[nH]ccc23)cn1 [ruxolitinib] + O=C(O)[C@@H]1[O][Sb](=[O])([O][Sb]2(=[O])[O][C@H]([C@H](O)CO)[C@H](O)[C@H](C(=O)O)[O]2)[O][C@H]([C@H](O)CO)[C@@H]1O [stibogluconate] (first compound 1 µM, partner dose 2 µM)",117
21,"Cc1cn(-c2cc(NC(=O)c3ccc(C)c(Nc4nccc(-c5cccnc5)n4)c3)cc(C(F)(F)F)c2)cn1 [nilotinib] + CC(=O)O[C@@]12CO[C@@H]1C[C@H](O)[C@@]1(C)C(=O)[C@H](O)C3=C(C)[C@@H](OC(=O)[C@H](O)[C@@H](NC(=O)OC(C)(C)C)c4ccccc4)C[C@@](O)([C@@H](OC(=O)c4ccccc4)[C@H]21)C3(C)C [Docetaxel] (first compound 0.2 µM, partner dose 0.0001 µM)",187
22,"COc1cc([C@@H]2c3cc4c(cc3[C@@H](O[C@@H]3O[C@@H]5CO[C@@H](C)O[C@H]5[C@H](O)[C@H]3O)[C@H]3COC(=O)[C@H]23)OCO4)cc(OC)c1O [etoposide] + Cc1nc(Nc2ncc(C(=O)Nc3c(C)cccc3Cl)s2)cc(N2CCN(CCO)CC2)n1 [dasatanib] (first compound 0.02 µM, partner dose 0.004 µM)",105
23,"CC[C@]1(O)C[C@H]2CN(CCc3c([nH]c4ccccc34)[C@@](C(=O)OC)(c3cc4c(cc3OC)N(C=O)[C@H]3[C@@](O)(C(=O)OC)[C@H](OC(C)=O)[C@]5(CC)C=CCN6CC[C@]43[C@@H]65)C2)C1 [vincristine] + Cc1ccc(Nc2nccc(N(C)c3ccc4c(C)n(C)nc4c3)n2)cc1S(N)(=O)=O [Pazopanib] (first compound 0.0001 µM, partner dose 0.4 µM)",133
24,"O=C(/C=C/c1cccnc1)NCCCCC1CCN(C(=O)c2ccccc2)CC1 + Cn1c(=O)n(-c2ccc(C(C)(C)C#N)cc2)c2c3cc(-c4cnc5ccccc5c4)ccc3ncc21 [NVP-BEZ235] (first compound 0.01 µM, partner dose 0.004 µM)",40.2
25,"O=C(/C=C/c1cccnc1)NCCCCC1CCN(C(=O)c2ccccc2)CC1 + Cc1cn(-c2cc(NC(=O)c3ccc(C)c(Nc4nccc(-c5cccnc5)n4)c3)cc(C(F)(F)F)c2)cn1 [nilotinib] (first compound 0.01 µM, partner dose 0.2 µM)",100

# 2 entries from above, with bars between the fields.
row | SMILES | cleaved PARP positive nuclei fraction [%]
12 | CC[C@]1(O)C[C@H]2CN(CCc3c([nH]c4ccccc34)[C@@](C(=O)OC)(c3cc4c(cc3OC)N(C=O)[C@H]3[C@@](O)(C(=O)OC)[C@H](OC(C)=O)[C@]5(CC)C=CCN6CC[C@]43[C@@H]65)C2)C1 [vincristine] + OCc1c[nH]c2ccccc12 [Indole-3-carbinol] (first compound 0.0001 µM, partner dose 0.8 µM) | 239
13 | O=c1[nH]nc(Sc2ncc([N+](=O)[O-])s2)n1-c1ccc2c(c1)OCCO2 + Cn1cnc2c(F)c(Nc3ccc(Br)cc3Cl)c(C(=O)NOCCO)cc21 [selumetinib] (first compound 0.2 µM, partner dose 0.015 µM) | 205

# Source: the supplement of paper PMC4604168 (melanoma cell lines)
